Reference: article PMC12488962

By UniProt entry, the sequences of proteins in these tests, tags left out.
UniProt P15307: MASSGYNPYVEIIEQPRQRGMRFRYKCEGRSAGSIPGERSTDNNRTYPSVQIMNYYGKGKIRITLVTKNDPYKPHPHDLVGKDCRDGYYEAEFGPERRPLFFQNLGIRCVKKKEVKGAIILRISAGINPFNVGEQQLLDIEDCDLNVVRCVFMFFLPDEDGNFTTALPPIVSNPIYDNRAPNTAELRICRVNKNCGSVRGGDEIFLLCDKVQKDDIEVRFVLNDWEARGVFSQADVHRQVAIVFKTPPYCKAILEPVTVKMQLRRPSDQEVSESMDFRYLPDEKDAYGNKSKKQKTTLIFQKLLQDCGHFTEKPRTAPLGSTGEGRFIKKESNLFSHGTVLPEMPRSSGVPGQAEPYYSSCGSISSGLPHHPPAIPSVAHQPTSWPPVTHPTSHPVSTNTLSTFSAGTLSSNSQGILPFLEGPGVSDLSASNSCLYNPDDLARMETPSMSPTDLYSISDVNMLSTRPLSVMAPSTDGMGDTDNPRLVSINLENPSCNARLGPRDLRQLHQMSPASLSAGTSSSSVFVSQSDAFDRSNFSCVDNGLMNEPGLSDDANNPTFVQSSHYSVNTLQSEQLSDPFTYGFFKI

Target: T1, His-Slc17a5 (sialin), stably overexpressed in Raw264.7 macrophages (mouse) (UniProt Q8BN82)
T1 sequence: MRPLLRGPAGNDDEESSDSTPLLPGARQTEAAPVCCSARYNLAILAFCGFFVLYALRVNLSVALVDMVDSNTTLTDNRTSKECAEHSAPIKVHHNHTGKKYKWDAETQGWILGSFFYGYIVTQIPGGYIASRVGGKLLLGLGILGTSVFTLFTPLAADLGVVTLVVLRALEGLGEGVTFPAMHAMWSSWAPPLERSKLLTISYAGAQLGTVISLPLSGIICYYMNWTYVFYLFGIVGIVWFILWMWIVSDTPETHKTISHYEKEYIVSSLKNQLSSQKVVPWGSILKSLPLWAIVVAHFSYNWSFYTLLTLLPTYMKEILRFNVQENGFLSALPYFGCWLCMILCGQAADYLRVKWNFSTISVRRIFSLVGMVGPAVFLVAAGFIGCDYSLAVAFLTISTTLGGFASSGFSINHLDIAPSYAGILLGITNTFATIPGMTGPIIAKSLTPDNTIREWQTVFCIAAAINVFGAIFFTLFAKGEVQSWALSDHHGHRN
Test: affinity purification with mass spectrometry; lysate of stable His-Slc17a5 Raw264.7 cells (IP buffer plus 0.3% NP-40), anti-His affinity beads on a column, 4 °C for 3 h, eluted with His-tag peptide, SDS-PAGE, silver staining, LC-MS/MS

With “Rel (c-Rel, proto-oncogene Rel) (from UniProt P15307 1-587)” the binding was “binds”.

No constants are given. Whether binding was seen depends on the method and setting. Binding seen in cells or lysates may run through a third protein. A yes stands for co-enrichment or nearness to the bait. Other partners may have been found. Where a sequence is shown, tags or fusion partners need not be part of it.
